Experimental data: PubChem BioAssay AID602196 (INSERM, 2012)
Purpose: 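Modifiers of cisplatin sensitivity in A549 cells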. Cells: human A549 lung cancer cells. Reagents: siRNA pair against human genes. Timing: 48 h transfection before cisplatin; time from cisplatin to read-out not stated. Treatment: cisplatin at a dose killing half of control-siRNA cells; exact dose and duration not given. Read-out: 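Cisplatin cell death as a shift from the 50% death seen with control siRNA; siRNAs toxic or growth-blocking alone scored 0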. Direction: two-siRNA summed score (-2 to +2): higher = both siRNAs protect from cisplatin killing; -2 means both sensitise; mean protection from cisplatin (shift in death) and protection from cisplatin (shift in death), siRNA C and protection from cisplatin (shift in death), siRNA D: higher = protection from cisplatin killing. Call rule: 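Each siRNA scores 0 if harmful alone by LDH or WST-1, otherwise +1 if it reduces and -1 if it increases cisplatin killing; a gene is active when both siRNAs agree (sum +2 or -2)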. Meaning of the calls: active = both siRNAs shift cisplatin killing the same way; inactive = no consistent shift, or siRNA harmful alone.
The deposit covers about 23,000 reagents; this is a random part of them. In the full data, 455 (2%) got an active call. 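Active includes both protection and sensitisation; some change values fall well beyond the stated -50 to +50 range.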 The numbers tell different reagents against one gene apart. Not stated in the record: the amount of reagent.

| Gene | reagent no. | two-siRNA summed score (-2 to +2) | mean protection from cisplatin (shift in death) (%) | protection from cisplatin (shift in death), siRNA C (%) | protection from cisplatin (shift in death), siRNA D (%) | activity call |
| --- | --- | --- | --- | --- | --- | --- |
| HOXD11 | 1 | -1 | -4.2 | 2.9 | -11.4 | inactive |
| SH3RF2 | 1 | 0 | -4.4 | -7.9 | -0.9 | inactive |
| MRGBP | 1 | 0 | -2.7 | 0.7 | -6.2 | inactive |
| PURB | 1 | 0 | -1.6 | -4.3 | 1 | inactive |
| ZNF441 | 1 | 1 | 8 | 13.1 | 2.8 | inactive |
| SIDT1 | 1 | 1 | 8.5 | -7.4 | 24.3 | inactive |
| WSB2 | 1 | -2 | -26.3 | -32.8 | -19.8 | active |
| MIS12 | 1 | 0 | 9.6 | 4.2 | 14.9 | inactive |
| ANAPC1P6 | 1 | 2 | 16.2 | 11.1 | 21.3 | active |
| MAP3K3 | 1 | 0 | -0.4 | 2.7 | -3.5 | inactive |
| YWHAE | 1 | 0 | -2.3 | -1.9 | -2.8 | inactive |
| HLA-B | 1 | 0 | 9.2 | 4.6 | 13.8 | inactive |
| ABHD6 | 1 | 1 | 2.1 | -2.6 | 6.7 | inactive |

Called active, among the entries above:
| Gene | reagent no. | two-siRNA summed score (-2 to +2) | mean protection from cisplatin (shift in death) (%) | protection from cisplatin (shift in death), siRNA C (%) | protection from cisplatin (shift in death), siRNA D (%) | activity call |
| --- | --- | --- | --- | --- | --- | --- |
| WSB2 | 1 | -2 | -26.3 | -32.8 | -19.8 | active |
| ANAPC1P6 | 1 | 2 | 16.2 | 11.1 | 21.3 | active |

Further results:
| Gene | reagent no. | two-siRNA summed score (-2 to +2) | mean protection from cisplatin (shift in death) (%) | protection from cisplatin (shift in death), siRNA C (%) | protection from cisplatin (shift in death), siRNA D (%) | activity call |
| --- | --- | --- | --- | --- | --- | --- |
| LPAR2 | 1 | 1 | 7.1 | -4.3 | 18.6 | inactive |
| C4BPB | 1 | 0 | 2.6 | -6.6 | 11.8 | inactive |
| C4BPB | 2 | 0 | 4.7 | 9 | 0.4 | inactive |
| C4orf54 | 1 | 1 | 2.7 | -3.8 | 9.1 | inactive |
| ETFB | 1 | 0 | -1.9 | -1.5 | -2.4 | inactive |
| GPR146 | 1 | 0 | 5 | -16.4 | 26.4 | inactive |
| RARS2 | 1 | 0 | 4.7 | -2.5 | 11.9 | inactive |
| SPATA1 | 1 | 0 | -3.7 | -4.1 | -3.2 | inactive |
| LOC401464 | 1 | 0 | 13.4 | 19.1 | 7.7 | inactive |
| CCL3L3 | 1 | 1 | 14.4 | 29.8 | -0.9 | inactive |
